Where a chain is given by its changes, count along the chain named. Results are given in words; binding and its absence hold for the method and conditions named. In cells and extracts the contact can be indirect. A result given as binding can be weak or reduced; the word gives no strength. Sequences can lack the tags named with a protein.
Assays:
Myc-ACBD5 T252E = target: T1, Myc-ACBD5 T252E (UniProt Q5T8D3); assay: co-IP; Myc-ACBD5 constructs or Myc-VAPB in COS-7 lysates (10 mM Tris-HCl pH 7.4, 150 mM NaCl, 0.5 mM EDTA, 0.5% NP-40, phosphatase inhibitor), Myc-TRAP magnetic agarose beads 1 h at 4°C; immunoblot; in some panels GSK3β WT or K85A coexpressed (Figs. 2 C, 3 A, 5 A, 7 A, S1 C, S4 B)
T1 sequence: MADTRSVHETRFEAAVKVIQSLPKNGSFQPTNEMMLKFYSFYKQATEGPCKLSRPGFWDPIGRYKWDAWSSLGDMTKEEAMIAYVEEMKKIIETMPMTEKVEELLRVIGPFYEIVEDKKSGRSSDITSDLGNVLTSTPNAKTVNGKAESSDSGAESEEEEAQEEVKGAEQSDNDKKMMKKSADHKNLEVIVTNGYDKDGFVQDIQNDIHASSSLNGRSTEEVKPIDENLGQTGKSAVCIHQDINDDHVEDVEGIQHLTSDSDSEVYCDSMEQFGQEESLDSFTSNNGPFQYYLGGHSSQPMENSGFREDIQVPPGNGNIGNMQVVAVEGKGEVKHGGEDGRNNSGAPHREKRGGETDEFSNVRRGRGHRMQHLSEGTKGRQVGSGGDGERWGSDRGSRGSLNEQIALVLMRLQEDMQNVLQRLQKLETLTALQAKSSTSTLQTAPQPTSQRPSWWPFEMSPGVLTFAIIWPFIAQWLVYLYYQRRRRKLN

Myc-ACBD5 S261A = target: T2, Myc-ACBD5 S261A (UniProt Q5T8D3); assay: as above
T2 sequence: T1 sequence with E252T, S261A

Myc-ACBD5 S263A = target: T3, Myc-ACBD5 S263A (UniProt Q5T8D3); assay: as above
T3 sequence: T1 sequence with E252T, S263A

Myc-ACBD5 = target: T4, Myc-ACBD5 (UniProt Q5T8D3); assay: co-IP; Myc-ACBD5 constructs in COS-7 lysates treated with or without λPP for 1 h, then Myc-TRAP magnetic agarose beads 1 h at 4°C; endogenous VAPB by immunoblot (Fig. 1 C, methods in p-0042; Fig. 2 D and E)
T4 sequence: T1 sequence with E252T

binding (Myc-ACBD5 T252E): binds | binding (Myc-ACBD5 S261A): binds | binding (Myc-ACBD5 S263A): binds | binding (Myc-ACBD5): binds
Substance: endogenous VAPB (COS-7 cells)
